Results are given in words; binding and its absence hold for the method and conditions named. In cells and extracts the contact can be indirect. Some binding calls cover weakened binding; strength is not graded here.

By UniProt entry, the sequences of proteins in these tests, tags left out. Residues count along the entry.
UniProt Q9DC51: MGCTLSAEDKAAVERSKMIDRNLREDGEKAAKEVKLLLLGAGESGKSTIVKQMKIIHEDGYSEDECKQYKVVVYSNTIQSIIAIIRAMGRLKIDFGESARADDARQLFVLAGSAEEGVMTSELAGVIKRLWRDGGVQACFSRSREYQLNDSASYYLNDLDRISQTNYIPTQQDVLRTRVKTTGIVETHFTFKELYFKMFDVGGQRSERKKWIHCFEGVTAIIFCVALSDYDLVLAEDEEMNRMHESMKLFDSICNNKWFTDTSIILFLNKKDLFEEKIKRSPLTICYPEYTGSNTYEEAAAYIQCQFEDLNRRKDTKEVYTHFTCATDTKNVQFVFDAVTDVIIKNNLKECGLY
UniProt B2RSH2: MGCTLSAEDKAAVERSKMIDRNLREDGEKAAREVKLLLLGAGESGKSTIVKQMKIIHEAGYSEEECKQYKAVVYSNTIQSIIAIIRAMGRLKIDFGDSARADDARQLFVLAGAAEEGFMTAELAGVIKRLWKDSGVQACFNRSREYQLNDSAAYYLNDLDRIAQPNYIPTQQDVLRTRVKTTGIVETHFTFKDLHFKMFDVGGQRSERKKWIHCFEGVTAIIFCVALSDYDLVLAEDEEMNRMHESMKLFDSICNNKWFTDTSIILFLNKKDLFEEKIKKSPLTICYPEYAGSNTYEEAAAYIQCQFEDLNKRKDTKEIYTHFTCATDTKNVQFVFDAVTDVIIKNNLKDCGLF
UniProt Q5NCP0, residues 24-784: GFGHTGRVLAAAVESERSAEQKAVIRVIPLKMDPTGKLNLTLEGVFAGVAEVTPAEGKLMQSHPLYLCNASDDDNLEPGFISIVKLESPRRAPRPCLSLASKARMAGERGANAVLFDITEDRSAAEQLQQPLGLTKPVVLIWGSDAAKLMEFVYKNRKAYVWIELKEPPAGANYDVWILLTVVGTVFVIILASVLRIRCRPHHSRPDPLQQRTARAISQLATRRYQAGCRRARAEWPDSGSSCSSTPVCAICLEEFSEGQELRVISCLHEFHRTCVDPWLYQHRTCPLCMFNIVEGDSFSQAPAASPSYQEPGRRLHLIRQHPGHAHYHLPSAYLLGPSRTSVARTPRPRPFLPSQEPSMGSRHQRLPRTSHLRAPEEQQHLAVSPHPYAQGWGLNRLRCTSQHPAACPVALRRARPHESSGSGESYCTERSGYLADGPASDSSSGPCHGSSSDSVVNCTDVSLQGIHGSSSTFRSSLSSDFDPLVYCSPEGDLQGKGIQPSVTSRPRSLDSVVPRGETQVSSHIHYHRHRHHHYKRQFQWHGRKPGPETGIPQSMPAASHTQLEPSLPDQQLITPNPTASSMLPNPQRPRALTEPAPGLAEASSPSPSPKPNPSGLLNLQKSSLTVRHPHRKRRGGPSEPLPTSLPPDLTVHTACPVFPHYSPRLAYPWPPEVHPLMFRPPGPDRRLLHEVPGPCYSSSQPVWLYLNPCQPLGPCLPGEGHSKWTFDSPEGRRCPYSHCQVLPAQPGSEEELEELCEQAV

Results on three substances are retold here after PMC10098032.

Holding throughout (test): co-IP; WT MEFs treated with RSPO3, endogenous proteins; which protein was precipitated is not given
Experiment [1] addresses T1, Grb2-associated binder 1 (Gab1) (mouse (endogenous in MEFs)) (UniProt Q9QYY0).
T1 sequence: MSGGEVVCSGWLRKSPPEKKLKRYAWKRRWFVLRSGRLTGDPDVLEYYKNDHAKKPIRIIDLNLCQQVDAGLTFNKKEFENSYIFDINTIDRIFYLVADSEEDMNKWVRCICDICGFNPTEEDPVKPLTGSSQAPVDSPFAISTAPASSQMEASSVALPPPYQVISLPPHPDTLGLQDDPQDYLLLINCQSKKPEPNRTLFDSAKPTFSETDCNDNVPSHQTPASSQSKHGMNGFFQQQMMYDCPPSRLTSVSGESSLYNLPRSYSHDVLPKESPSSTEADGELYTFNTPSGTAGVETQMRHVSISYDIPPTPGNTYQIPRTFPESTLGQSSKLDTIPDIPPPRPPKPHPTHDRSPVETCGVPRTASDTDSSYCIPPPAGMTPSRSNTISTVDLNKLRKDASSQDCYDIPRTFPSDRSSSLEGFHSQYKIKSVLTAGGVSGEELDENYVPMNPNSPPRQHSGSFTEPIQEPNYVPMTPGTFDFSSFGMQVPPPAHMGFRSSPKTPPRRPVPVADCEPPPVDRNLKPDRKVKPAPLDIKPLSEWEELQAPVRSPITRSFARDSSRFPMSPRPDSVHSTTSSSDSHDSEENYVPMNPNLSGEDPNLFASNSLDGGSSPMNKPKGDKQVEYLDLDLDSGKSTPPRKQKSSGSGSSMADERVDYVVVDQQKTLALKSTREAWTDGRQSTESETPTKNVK

The target of experiment [2] is G protein inhibitory α subunit 3 (Gαi3) (mouse (endogenous in MEFs)) (UniProt Q9DC51).
The target of experiment [3] is G protein inhibitory α subunit 1 (Gαi1) (mouse (endogenous in MEFs)) (UniProt B2RSH2).
Experiment [4] addresses T2, leucine-rich repeat G protein-coupled receptor 4 (LGR4) (mouse (endogenous in MEFs)) (UniProt A2ARI4).
T2 sequence: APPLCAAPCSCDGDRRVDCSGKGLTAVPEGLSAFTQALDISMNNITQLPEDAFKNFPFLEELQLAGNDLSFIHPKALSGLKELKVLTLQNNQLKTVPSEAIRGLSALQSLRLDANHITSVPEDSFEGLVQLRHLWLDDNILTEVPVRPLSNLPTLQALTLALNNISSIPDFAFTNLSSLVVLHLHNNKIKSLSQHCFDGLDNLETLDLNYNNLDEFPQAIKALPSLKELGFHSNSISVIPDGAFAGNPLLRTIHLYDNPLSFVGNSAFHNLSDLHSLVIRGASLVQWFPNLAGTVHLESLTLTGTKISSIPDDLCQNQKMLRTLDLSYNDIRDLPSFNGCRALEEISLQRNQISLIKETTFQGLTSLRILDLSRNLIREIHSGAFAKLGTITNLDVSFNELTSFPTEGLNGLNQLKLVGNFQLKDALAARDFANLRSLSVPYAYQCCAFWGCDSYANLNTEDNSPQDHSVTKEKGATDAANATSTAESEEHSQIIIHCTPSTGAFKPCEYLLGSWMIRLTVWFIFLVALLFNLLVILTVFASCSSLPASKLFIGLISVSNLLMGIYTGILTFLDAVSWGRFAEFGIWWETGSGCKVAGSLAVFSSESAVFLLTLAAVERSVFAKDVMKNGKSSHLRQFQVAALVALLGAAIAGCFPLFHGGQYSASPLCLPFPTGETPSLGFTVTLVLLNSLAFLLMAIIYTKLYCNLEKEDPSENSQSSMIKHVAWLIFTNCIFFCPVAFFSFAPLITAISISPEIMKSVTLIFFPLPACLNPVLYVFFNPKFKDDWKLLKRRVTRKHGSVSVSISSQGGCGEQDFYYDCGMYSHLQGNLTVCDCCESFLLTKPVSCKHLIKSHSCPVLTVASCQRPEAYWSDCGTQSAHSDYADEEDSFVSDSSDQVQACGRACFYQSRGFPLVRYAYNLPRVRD

With “ring finger protein 43 (RNF43) (from UniProt Q5NCP0 24-784)”, the binding result in experiment [1], in experiment [2] and in experiment [3] was “no binding” each time.

For “G protein inhibitory α subunit 1 (Gαi1) (from UniProt B2RSH2 1-354)”, the binding result in experiment [1] and in experiment [4] was “binds” in each case.

As for “G protein inhibitory α subunit 3 (Gαi3) (from UniProt Q9DC51 1-354)”, the binding result in experiment [1] and in experiment [4] was “binds” throughout.
